Measurements taken from PubChem BioAssay AID651660 (Broad Institute, 2012).
Where “and” joins values, the source holds several entries; their conditions need not be identical. Identical values can stand only once. Out of some 1,900 compounds screened, about 15 (0.8%) were called active.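 How the source made its calls: active means every replicate shows at least 50% inhibition; inconclusive means mean inhibition at least 50% but some replicate below; inactive means the rest.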 Some of the results follow.

Chains of the proteins cited; added tags and fusions are not shown. Lines headed by an entry give the natural chain unless they say otherwise; changes in a name come on top.
UniProt P43351: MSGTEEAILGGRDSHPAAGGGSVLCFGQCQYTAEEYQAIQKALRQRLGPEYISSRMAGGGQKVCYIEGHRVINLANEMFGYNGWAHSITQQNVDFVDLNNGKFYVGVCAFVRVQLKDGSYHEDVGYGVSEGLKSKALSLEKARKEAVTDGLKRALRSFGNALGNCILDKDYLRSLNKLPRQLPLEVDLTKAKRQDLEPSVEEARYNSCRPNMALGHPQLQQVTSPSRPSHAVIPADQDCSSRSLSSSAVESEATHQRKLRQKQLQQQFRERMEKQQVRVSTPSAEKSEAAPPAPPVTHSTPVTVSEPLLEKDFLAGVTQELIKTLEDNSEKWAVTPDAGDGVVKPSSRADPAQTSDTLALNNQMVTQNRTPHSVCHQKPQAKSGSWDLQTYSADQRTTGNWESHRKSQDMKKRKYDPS

These compounds were tested against DNA repair protein RAD52 homolog (Homo sapiens) (UniProt P43351) (assay: RAD52 ssDNA annealing inhibitors, primary screen, biochemical, FRET, single point (AID 651660;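 further: 0% = median of neutral control wells and 100% = median of positive control wells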)). Conditions: Recombinant RAD52 ssDNA annealing, FRET fluorescence, 30 min; at 18.7 µM; active compounds read high.

inhibition, inactive:
O=C(O)/C=C/c1ccc(O)c(O)c1 1.55%, O=C(Nc1ccc(Cl)cn1)Nc1ccccc1Cl -4.1%, C[N+](C)(C)CCCCCCCCCC[N+](C)(C)C -12.5%, O=C(/C=C/c1ccco1)NCc1ccc2c(c1)OCO2 -25.8%, CC1=CC(C)(C)N2C(=O)C3(NCCc4c3[nH]c3ccccc43)c3cc(C)cc1c32 (centres undefined) 15%, COc1ccc(CC(=O)N2CC3(C)CC2CC(C)(C)C3)cc1OC (centres undefined) 4.24%, C=CCN1C(=O)c2oc3ccccc3c(=O)c2C1c1ccc(O)c(OC)c1 (centres undefined) -8.96%, COc1cccc2c(=O)c3ccccc3oc12 -7.5%, CC1(C)C(=O)OC(c2cccs2)C2(CCCCC2)C1=O (centres undefined) -4.2%, CN(C)CCN(Cc1ccccc1)c1ccccn1 -8.55%, Cn1c(=O)oc2cc(S(=O)(=O)N3CCc4ccccc4C3)ccc21 1.58%, CC(NC(=O)OCc1ccccc1)C(=O)N1CC(O)CC1C(=O)O (centres undefined) -5.77%, CCC[C@@H]1C[C@@H](C(=O)N[C@H]([C@@H](C)O)[C@H]2O[C@H](SC)[C@H](O)[C@@H](O)C2O)N(C)C1 (some centres undefined) 1.34%, COc1cccc(OC)c1C(=O)Nc1nc2ccc([N+](=O)[O-])cc2s1 -5.43%, CCCN(CCC)S(=O)(=O)c1ccc(C(=O)O)cc1 11.6%, CSCCC1NC2(C(=O)Nc3ccc(Cl)cc32)[C@@H]2C(=O)N(C3CCCC3)C(=O)[C@H]12 (some centres undefined) 0.369%, CN1C2CCC1CC(OC(c1ccccc1)c1ccccc1)C2 (centres undefined) 2.64%, COc1ccc(C2NC(C(=O)O)Cc3c2[nH]c2ccccc32)cc1CN1CCN(c2ccc(F)cc2)CC1 (centres undefined) 2.77%, CN1CCc2cccc3c2[C@@H]1Cc1ccc(O)c(O)c1-3 28.9%, CN(C)CCOC(c1ccccc1)c1ccccc1 -4.29%, O=C(NCc1ccco1)/C(=C\C=C\c1ccccc1)NC(=O)c1ccccc1Br -2.54%, CC(=O)N1CCN(c2ccc(OC[C@H]3CO[C@](Cn4ccnc4)(c4ccc(Cl)cc4Cl)O3)cc2)CC1 19.9%, CO[C@@H]1O[C@@H]2COC(c3ccccc3)O[C@@H]2[C@@H](OC)[C@@H]1O (some centres undefined) 4.91%, COc1ccc(S(N)(=O)=O)cc1C(N)=O 0.0195%, CC(=O)[C@H]1CC[C@H]2[C@@H]3CCC4=CC(=O)CC[C@]4(C)[C@H]3CC[C@]12C 0.0875%, COC(=O)C1=CN(Cc2cccs2)C=C(C(=O)OC)C1c1cccc(Cl)c1 11.7%, CC(C)NC[C@@H](O)c1ccc(O)c(O)c1 -21.4%, Cc1ccc2[nH]c3c(=O)n(CCc4cnc[nH]4)cnc3c2c1 6.95%, CCCCCC(=O)O[C@]1(C(C)=O)CC[C@H]2[C@@H]3CCC4=CC(=O)CC[C@]4(C)[C@H]3CC[C@@]21C 5.7%, CNCCCC12CCC(c3ccccc31)c1ccccc12 13.6% and 16.7%, Oc1ccc(Oc2ncc(Cl)cc2Cl)cc1 5.9%, CCOC(=O)N1CCc2[nH]c3ccc(C)cc3c2C1 -15.2%, Cc1nc(N[C@@H](Cc2c[nH]c3ccccc23)C(=O)O)c2oc3ccccc3c2n1 -19.8%, O=C(Oc1ccccc1)Oc1ccc2c(c1)oc(=O)c1ccccc12 2.77%, CC(=O)N(CCC1(c2ccc(C)cc2)CCOC(C(C)C)C1)Cc1ccco1 (centres undefined) -1.21%, O=C(O)CCn1cnc2ccccc2c1=O 0.434%, O=C(CCCN1C(=O)/C(=C\c2cccs2)SC1=S)Nc1ccccn1 -23.2%, CC(=O)CCCCn1c(=O)c2c(ncn2C)n(C)c1=O -3.51%, O=C1CCCN1CCCn1cnc2c([nH]c3ccc(F)cc32)c1=O -0.473%, Cc1cccc2c(=O)n3c(nc12)CCCCC3 -4.57%, O=C(NCCN1CCOCC1)c1ccc(Cl)cc1 -3.7%, Cc1cc(OC(=O)CNC(=O)OC(C)(C)C)c2c(C)cc(=O)oc2c1 -1.07%, COc1ccc(C(=O)CCN2CCc3cc(OC)c(OC)cc3C2)cc1 5.84%, COc1cc(CC(=O)NCCc2ccc(S(N)(=O)=O)cc2)cc(OC)c1OC -2.62%, Cc1cccc(OCC(=O)Nc2ccc(C(=O)NCC(C)C)cc2)c1 -8.4%, C[C@H]([C@@H](N)C(=O)N[C@@H](C(=O)O)[C@@H]1O[C@H](n2ccc(=O)[nH]c2=O)[C@@H](O)[C@H]1O)[C@@H](O)c1ccc(O)cn1 -60.2%, Cc1c(OCC(=O)NC(Cc2c[nH]c3ccc(O)cc23)C(=O)O)ccc2c3c(c(=O)oc12)CCC3 (centres undefined) -8.05%, Cc1ccnc(NS(=O)(=O)c2ccc(N)cc2)n1 -3.32%, NC(=O)OCC(COC(N)=O)c1ccccc1 2.1%, Cc1ccc(C(=O)COC(=O)c2cccc(N3C(=O)c4c(C)nc5ccccc5c4C3=O)c2)cc1C -4.82%, CC1(C#CC[N+]2(C)CCCCC2)CCC2C(O1)c1ccccc1OC2(C)C (centres undefined) -7.61%, CC(=O)N1CC2(C)CN(C(C)=O)CC(C)(C1)C2 -4.54%, O=c1ccn([C@@H]2O[C@H](CO)[C@@H](O)[C@H]2O)c(=O)[nH]1 -0.182%, Cc1cc(O)c(C(C)C)cc1C1(c2cc(C(C)C)c(O)cc2C)OC(=O)c2ccccc21 -6.19%, CCCCCC(O)c1cccc(OCc2ccc3ccccc3n2)c1 (centres undefined) 8.49%, COc1ccc(C2CC(c3ccc([N+](=O)[O-])cc3)=NN2C(=O)c2ccccc2)cc1OC (centres undefined) -4.95%, CCCCNc1cc(C(=O)O)cc(S(N)(=O)=O)c1Oc1ccccc1 -6.48%, CC1(C)CC(CC(=O)O)(c2ccc(Cl)cc2)CCO1 (centres undefined) -20%, COc1c2c(nc3occc13)C(CC=C(C)C)(OC)C(O)CC2 (centres undefined) -12.2%, C[N+]12CCCCC1C(COC(=O)c1ccc3c(c1)OCO3)CCC2 (centres undefined) 8.11%, Cc1cc(OC(C(=O)O)c2ccccc2)c2c(C)c(Cc3ccccc3)c(=O)oc2c1 (centres undefined) -12.1%, CC1(C)CC(=O)C(C2(O)C(=O)Nc3ccccc32)CO1 (centres undefined) -4.58%, O=C(CCCCC(=O)NC1CCCC1)NC1CCCC1 -2.55%, CC[C@H](C)C(=O)O[C@H]1C[C@@H](C)C=C2C=C[C@H](C)[C@H](CC[C@@H]3C[C@@H](O)CC(=O)O3)[C@H]21 -3.45%, Cc1nc(C2CC(=O)OC23CCCCC3)cs1 (centres undefined) -9.38%, COc1ccc(C(=O)O)cc1F -6.77%, Cc1ccc(C2CC(c3cccs3)=NN2C(=O)c2ccco2)o1 (centres undefined) -5.04%, COc1cc(CNc2ccc(C)c(C)c2)cc(OC)c1OC -4.85%, CC(=O)N[C@@H](CS)C(=O)O 1.59%, O=C(CNC(=O)OCc1ccccc1)NC1CCCCCC1 0.625%, O=C(OCC(O)C(O)COC(=O)c1ccccc1)c1ccccc1 (centres undefined) -10.3%, O=C(CCc1ccccc1)Nc1ccccc1C(F)(F)F -1.84%, CC(=O)c1c(C)c(C)c2n1CCn1c(C)ccc1-2 -152%, Oc1ccc(COCc2ccccc2)c2cccnc12 -34.7%, O=C(O)c1cc2cc(Cl)cc(Cl)c2oc1=O -23.7%, COc1ccc(NC(=S)NCCc2c[nH]c3ccccc23)cc1 7.25%, O=C(NCCNc1ccc(Cl)cc1[N+](=O)[O-])c1cccnc1 -2.03%, CC(C)Oc1ccc(C2CC(=O)N(c3ccc(C(=O)O)cc3)C2=O)cc1 (centres undefined) -4.85%, O=C(NC(Nc1ccccn1)C(Cl)(Cl)Cl)c1ccccc1 (centres undefined) -5.2%, C[C@]12C[C@H](O)[C@H]3[C@@H](CCC4=CC(=O)CC[C@@]43C)[C@@H]1CC[C@@H]2C(=O)CO -1.6%, c1ccc(-c2ccccn2)nc1 -16%, COCCOC(=O)C1=C(N)OC2=C(C(=O)CCC2)C1c1cccnc1 (centres undefined) -5.44%, CCSc1nc(O)c(C2OC(=O)c3c2ccc(OC)c3OC)c(=O)n1CC (centres undefined) -5.46%, CCN(CC)C(=S)SSC(=S)N(CC)CC -20%, CCOC(=O)C(NC(C)=O)C(O)c1ccc([N+](=O)[O-])cc1 (centres undefined) 1.8%, COc1cc2cc(C(=O)O)n(C)c2c(OC)c1OC -3.98%, CCNC(=O)c1c(N)sc2c1CCCCC2 -63%, Nc1c2c(nc3ccccc13)CCCC2 18.1%, COc1ccc(C(C)N2CC34C=CC(O3)C(C(=O)OCC(C)C)C4C2=O)cc1 (centres undefined) 6.46%, O=C1OC(Nc2ccc3c(c2)OCO3)c2ccccc21 (centres undefined) -1.7%, COc1cc2c3c(c1)C1(C(=O)N3C(C)(C)C=C2C)C(C#N)=C(N)Oc2cc(C)oc(=O)c21 (centres undefined) 9.01%, COc1cc2c(cc1OC)C(C)=NC1(CCCCC1)C2 -27.9%, COc1ccc2[nH]c3c(c2c1)CCn1c-3nc2ccccc2c1=O -28.6%, Cc1ccc2nc(NC3=NC(CC(=O)O)C(=O)N3)nc(C)c2c1 (centres undefined) 7.8%
